PubChem BioAssay AID1053208 | Peter MacCallum Cancer Centre – 2014
Screen: 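Synthetic lethal interactions between gene loss and doxorubicin in osteosarcoma cells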 (primary screen). Cell system: mouse osteosarcoma cells, early-passage culture from an engineered mouse model of fibroblastic bone tumour. Knock-down reagent: siRNA pool against mouse genes, 40 nM. Time to read-out: about 120 h (48 h before drug, then 72 h with drug). Treatment: doxorubicin 100 nM for 72 h, roughly 30-40% inhibitory dose. Measurement: 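Viability read as ATP luminescence after 72 h of 100 nM doxorubicin or none, duplicate wells averaged, scaled to non-targeting siRNA, then expressed as robust z-scores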. Direction: viability z-score with doxorubicin: higher = more viable cells under doxorubicin; viability z-score without drug: higher = more viable cells with knock-down alone. Active means: 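a pool counts as active when its viability z-score with doxorubicin is -2 or below and its z-score without drug lies between -2 and 2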.
This is a random part of about 17,000 reagents. 788 of all reagents (4.7%) count as active. 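Calls rest on z-score classes alone; an extra cut-off of viability at most 70% of control was not applied to them.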 Unmarked entries are inactive. A reagent listed more than once was tested more than once; the source does not tell the runs apart. Further read-outs or replicates are left out here. No sequences are given here.

target | combined z-score class | viability z-score with doxorubicin | viability z-score without drug
Wdr45b (WD repeat domain 45B) | no change with or without drug | -0.45 | 0.17
Rgl1 (ral guanine nucleotide dissociation stimulator,-like 1) | no change with or without drug | -0.9 | -0.17
C87436 (expressed sequence C87436) | no change with or without drug | -1.57 | 0.17
Tmod3 (tropomodulin 3) | no change with or without drug | -0.45 | -0.17
Or8g34 (olfactory receptor family 8 subfamily G member 34) | no change with or without drug | -1.01 | -0.51
Vps35l (VPS35 endosomal protein sorting factor like) | no change with or without drug | -0.9 | -0.84
Dck (deoxycytidine kinase) | no change with or without drug | -0.22 | -0.51
Sugp1 (SURP and G patch domain containing 1) | no change with or without drug | 0.67 | 1.18
H2-Ea (histocompatibility 2, class II antigen E alpha) | no change with or without drug | 0.67 | -0.51
Cdc34 (cell division cycle 34) | no change with or without drug | 1.57 | 0.34
Ints11 (integrator complex subunit 11) | no change with or without drug | -0.45 | 1.85
Tmem69 (transmembrane protein 69) | no change with or without drug | 0.56 | -1.18
Wasf1 (WASP family, member 1) | no change with or without drug | 0 | 0
Slc15a2 | no change with or without drug | -0.34 | 1.52
Or5ap2 (olfactory receptor family 5 subfamily AP member 2) | no change with or without drug | -1.69 | -0.51
Nmur1 (neuromedin U receptor 1) | no change with or without drug | -0.45 | -0.17
AW209491 (expressed sequence AW209491) | no change with or without drug | 0.56 | -0.34
Usp27x (ubiquitin specific peptidase 27, X chromosome) | low cell count with doxorubicin only (active) | -3.37 | -0.51
Sufu (SUFU negative regulator of hedgehog signaling) | high cell count with doxorubicin only | 2.02 | 0.67
Zfp512 (zinc finger protein 512) | no change with or without drug | -0.22 | 0.84
Bend7 (BEN domain containing 7) | no change with or without drug | -1.57 | 0.84
Rpgr (retinitis pigmentosa GTPase regulator) | no change with or without drug | -1.24 | 0
Plekha8 (pleckstrin homology domain containing A8) | no change with or without drug | -0.22 | 0.17
Uaca | no change with or without drug | 0 | 1.01
Ddx28 (DEAD box helicase 28) | no change with or without drug | 0.22 | 0.51
Ptprz1 (protein tyrosine phosphatase receptor type Z, polypeptide 1) | no change with or without drug | -1.35 | -0.51
Smc3 (structural maintenance of chromosomes 3) | no change with or without drug | -1.12 | 0.17
Rbfox2 (RNA binding protein, fox-1 homolog (C. elegans) 2) | no change with or without drug | 0.9 | -0.51
Gjc1 (gap junction protein, gamma 1) | high cell count with doxorubicin only | 2.02 | 1.52
Rgp1 (RAB6A GEF compex partner 1) | no change with or without drug | -1.91 | 1.18
Zfp593 (zinc finger protein 593) | no change with or without drug | -1.12 | -0.84
Hes1 (hes family bHLH transcription factor 1) | no change with or without drug | 0.9 | 0.17
Nr1d2 (nuclear receptor subfamily 1, group D, member 2) | no change with or without drug | 1.8 | 0.34
Ca4 (carbonic anhydrase 4) | no change with or without drug | -1.69 | 0.34
Nipsnap1 (nipsnap homolog 1) | high cell count with doxorubicin only | 2.92 | 0.17
Phyhip (phytanoyl-CoA hydroxylase interacting protein) | no change with or without drug | -1.57 | 0
Ptpa (protein phosphatase 2 protein activator) | no change with or without drug | 0.9 | 1.35
Hax1 (HCLS1 associated X-1) | no change with or without drug | 0.67 | 1.35
Nufip1 (nuclear FMR1 interacting protein 1) | no change with or without drug | -0.45 | 0.84
Zfp68 (zinc finger protein 68) | no change with or without drug | 1.35 | 0.34
Calml3 (calmodulin-like 3) | no change with or without drug | 0.22 | -0.84
Ankrd9 (ankyrin repeat domain 9) | no change with or without drug | 0.11 | 1.18
Pitx3 (paired-like homeodomain transcription factor 3) | no change with or without drug | -0.9 | -0.17
Ly6g5b (lymphocyte antigen 6 family member G5B) | no change with or without drug | -0.45 | -0.17
Ppa1 (pyrophosphatase (inorganic) 1) | no change with or without drug | 0 | -0.51
Ap3b1 (adaptor-related protein complex 3, beta 1 subunit) | low cell count with doxorubicin only (active) | -2.36 | -1.18
Dcbld2 (discoidin, CUB and LCCL domain containing 2) | no change with or without drug | 0.56 | 0.84
Or1a1 (olfactory receptor family 1 subfamily A member 1) | no change with or without drug | -0.67 | -0.34
Or1a1 (olfactory receptor family 1 subfamily A member 1) | no change with or without drug | 0.67 | 0.84
Or5p81 (olfactory receptor family 5 subfamily P member 81) | no change with or without drug | -0.67 | -0.17

An excerpt from above, reduced to “viability z-score with doxorubicin”.
Bend7 (BEN domain containing 7): -1.57
Rpgr (retinitis pigmentosa GTPase regulator): -1.24
Plekha8 (pleckstrin homology domain containing A8): -0.22
Uaca: 0
Ddx28 (DEAD box helicase 28): 0.22
Ptprz1 (protein tyrosine phosphatase receptor type Z, polypeptide 1): -1.35
Smc3 (structural maintenance of chromosomes 3): -1.12
Rbfox2 (RNA binding protein, fox-1 homolog (C. elegans) 2): 0.9
